Where a name gives a salt, the structure may show the parent alone. ± gives the standard deviation of the averaged measurements. The list shows a part of the results. The data scatter; read single values as rough.
Columns and labels:
hAMSC donor 1 [1] = assay: Hoechst total cell count ratio vs vehicle control; higher = more cells (less toxicity)
hAMSC donor 2 [2] = assay: as above
hAMSC donor 1 [3] = assay: transgenic luciferase activity (RLU/mg protein) fold change vs vehicle control (ratio); higher = more transgene expression
hAMSC donor 2 [4] = assay: as above
hAMSC donor 1 [5] = assay: transfection efficiency (EGFP+ cells / Hoechst count) fold change vs vehicle control (ratio); hAMSC are human adipose-derived mesenchymal stem cells given an EGFP-luciferase plasmid by lipofection; higher = enhanced transfection
hAMSC donor 2 [6] = assay: as above
[7] = priming compound concentration 0.2 µM
[8] = priming compound concentration 1.7 µM
[9] = priming compound concentration 13 µM

| Structure (SMILES) | Hoechst total cell count ratio (hAMSC donor 1 [1]; [7]) | Hoechst total cell count ratio (hAMSC donor 1 [1]; [8]) | Hoechst total cell count ratio (hAMSC donor 1 [1]; [9]) | Hoechst total cell count ratio (hAMSC donor 2 [2]; [7]) | Hoechst total cell count ratio (hAMSC donor 2 [2]; [8]) | Hoechst total cell count ratio (hAMSC donor 2 [2]; [9]) | transgenic luciferase activity (hAMSC donor 1 [3]; [8]) | transgenic luciferase activity (hAMSC donor 1 [3]; [9]) | transgenic luciferase activity (hAMSC donor 2 [4]; [7]) | transgenic luciferase activity (hAMSC donor 2 [4]; [8]) | transgenic luciferase activity (hAMSC donor 2 [4]; [9]) | transfection efficiency (hAMSC donor 1 [5]; [7]) | transfection efficiency (hAMSC donor 1 [5]; [8]) | transfection efficiency (hAMSC donor 1 [5]; [9]) | transfection efficiency (hAMSC donor 2 [6]; [7]) | transfection efficiency (hAMSC donor 2 [6]; [8]) | transfection efficiency (hAMSC donor 2 [6]; [9]) | transgenic luciferase activity (hAMSC donor 1 [3]; [7]) |
| --- | --- | --- | --- | --- | --- | --- | --- | --- | --- | --- | --- | --- | --- | --- | --- | --- | --- | --- |
| C[C@@H]1C[C@H]2[C@@H]3CCC4=CC(=O)C=C[C@]4(C)[C@@]3(F)[C@@H](O)C[C@]2(C)[C@@]1(O)C(=O)CO [Dexamethasone] | 1.57 ± 0.11 | 1.34 ± 0.17 | 1.39 ± 0.13 | 1.19 ± 0.036 | 0.9753 ± 0.0025 | 1.21 ± 0.053 | 12.8 ± 2.5 | 7.15 ± 0.75 | 1.62 ± 0.63 | 3.05 ± 0.5 | 4.39 ± 0.7 | 1.34 ± 0.28 | 2.91 ± 0.13 | 1.94 ± 0.24 | 1.14 ± 0.074 | 1.94 ± 0.19 | 1.79 ± 0.097 |  |
| COC(=O)Nc1nc2cc(C(=O)c3ccc(F)cc3)ccc2[nH]1 [Flubendazole] | 1.1 ± 0.16 | 1.16 ± 0.16 | 1.02 ± 0.38 | 1.02 ± 0.093 | 0.762 ± 0.017 | 0.508 ± 0.084 | 0.543 ± 0.32 |  |  | 0.516 ± 0.056 | 0.185 ± 0.043 | 1.05 ± 0.15 | 1.14 ± 0.15 | 0.829 ± 0.15 | 1.34 ± 0.17 | 1.42 ± 0.12 | 0.967 ± 0.14 | 1.36 ± 0.73 |
| Cc1cc2c(s1)Nc1ccccc1N=C2N1CCN(C)CC1 [Olanzapine] | 1.33 ± 0.19 | 1.27 ± 0.098 | 1.35 ± 0.18 | 0.956 ± 0.27 | 1.04 ± 0.21 | 1.04 ± 0.11 | 1.48 ± 0.65 | 0.594 ± 0.45 | 0.765 ± 0.53 | 1.01 ± 0.044 | 0.803 ± 0.14 | 1.07 ± 0.071 | 1.34 ± 0.13 | 1.26 ± 0.19 | 0.986 ± 0.47 | 1.14 ± 0.15 | 1.03 ± 0.27 |  |
| C[C@]12CCC(=O)C=C1CC[C@@H]1[C@@H]2CC[C@@]2(C)[C@H]1CC[C@]2(O)C(=O)CO [11-Deoxycortisol] | 1.38 ± 0.15 | 1.3 ± 0.16 | 1.29 ± 0.036 | 1.03 ± 0.16 | 1.29 ± 0.058 | 1.31 ± 0.35 | 1.41 ± 1 |  | 0.69 ± 0.24 | 0.654 ± 0.072 | 1.35 ± 0.2 | 0.966 ± 0.15 | 0.798 ± 0.15 | 1.15 ± 0.076 | 1.06 ± 0.29 | 0.868 ± 0.066 | 1.18 ± 0.28 | 0.518 ± 0.029 |
| CN/C(=N\CCSCc1nc[nH]c1C)NC#N [Cimetidine] | 1.16 ± 0.078 | 1.33 ± 0.25 | 1.35 ± 0.21 | 1.29 ± 0.09 | 0.772 ± 0.042 | 1.08 ± 0.16 |  | 9.9 ± 1.6 | 0.766 ± 0.071 | 0.376 ± 0.051 |  | 1.23 ± 0.45 | 1.14 ± 0.14 | 1.52 ± 0.45 | 0.885 ± 0.045 | 1.67 ± 0.32 | 1.15 ± 0.2 | 0.385 ± 0.26 |
| COc1ccc2cc(CCC(C)=O)ccc2c1 [Nabumetone] | 1.38 ± 0.21 | 1.2 ± 0.061 | 1.38 ± 0.17 | 1.15 ± 0.03 | 1.27 ± 0.21 | 1.16 ± 0.13 | 1.27 ± 0.17 | 0.628 ± 0.1 | 0.898 ± 0.38 | 0.953 ± 0.46 | 1.23 ± 0.25 | 0.993 ± 0.15 | 1.58 ± 0.31 | 1.23 ± 0.28 | 0.918 ± 0.08 | 1.16 ± 0.058 | 1.4 ± 0.13 |  |
| O=C(c1ccc(OCCN2CCCCC2)cc1)c1c(-c2ccc(O)cc2)sc2cc(O)ccc12 [Raloxifene hydrochloride] | 1.46 ± 0.15 | 1.4 ± 0.098 | 1 ± 0.14 | 0.755 ± 0.37 | 0.882 ± 0.11 | 1.13 ± 0.12 | 0.521 ± 0.36 | 0.785 ± 0.48 |  | 0.516 ± 0.03 | 0.235 ± 0.066 | 1.26 ± 0.27 | 0.887 ± 0.21 | 1.26 ± 0.26 | 1.12 ± 0.13 | 1.05 ± 0.38 | 0.634 ± 0.12 |  |
| O=C1CCc2cc(OCCCCc3nnnn3C3CCCCC3)ccc2N1 [Cilostazol] | 1.06 ± 0.066 | 1.25 ± 0.037 | 1.25 ± 0.074 | 1.07 ± 0.061 | 1.15 ± 0.064 | 1.52 ± 0.044 | 0.212 ± 0.014 | 0.968 ± 0.44 | 1.06 ± 0.15 | 0.862 ± 0.19 | 0.494 ± 0.076 | 1.82 ± 0.38 | 1.29 ± 0.14 | 0.574 ± 0.071 | 1.37 ± 0.14 | 0.939 ± 0.024 | 0.683 ± 0.067 |  |
| CC(=O)CCCCn1cnc2c1c(=O)n(C)c(=O)n2C [Lomifylline] | 1.11 ± 0.098 | 1.04 ± 0.064 | 1.43 ± 0.098 | 1.3 ± 0.15 | 1.14 ± 0.14 | 1.24 ± 0.17 | 0.509 ± 0.34 |  | 0.931 ± 0.12 | 0.731 ± 0.071 | 0.65 ± 0.13 | 1.1 ± 0.16 | 1.61 ± 0.73 | 0.746 ± 0.23 | 1.02 ± 0.054 | 1.24 ± 0.1 | 1.17 ± 0.15 | 0.718 ± 0.3 |
| CC(C)(C#N)c1cc(Cn2cncn2)cc(C(C)(C)C#N)c1 [Anastrozole] | 1.46 ± 0.22 | 0.943 ± 0.16 | 1.07 ± 0.19 | 0.93 ± 0.2 | 1.51 ± 0.22 | 1.1 ± 0.29 | 0.876 ± 0.61 | 1.09 ± 0.23 |  | 0.802 ± 0.16 | 0.384 ± 0.044 | 0.913 ± 0.2 | 1.2 ± 0.38 | 1.05 ± 0.3 | 1.03 ± 0.17 | 1.05 ± 0.13 | 1.1 ± 0.1 |  |
| CC(C)NCC(O)c1cc(O)cc(O)c1 (centres undefined) [Metaproterenol] | 1.18 ± 0.2 | 1.16 ± 0.1 | 1.33 ± 0.17 | 1.04 ± 0.044 | 1.31 ± 0.039 | 1.08 ± 0.17 | 1.56 ± 0.43 |  | 0.835 ± 0.079 | 0.745 ± 0.032 | 0.825 ± 0.15 | 1.27 ± 0.24 | 0.873 ± 0.21 | 0.969 ± 0.17 | 1.18 ± 0.36 | 0.927 ± 0.042 | 0.948 ± 0.22 | 0.796 ± 0.29 |
| C#C[C@]1(OC(C)=O)CC[C@H]2[C@@H]3CCC4=CC(=O)CC[C@@H]4[C@H]3CC[C@@]21C [19-Norethindrone acetate] | 1.38 ± 0.15 | 1.1 ± 0.16 | 1.38 ± 0.25 | 1.12 ± 0.036 | 1.11 ± 0.033 | 1.28 ± 0.41 | 0.905 ± 0.029 | 0.351 ± 0.14 | 0.82 ± 0.16 | 0.47 ± 0.095 | 0.502 ± 0.084 | 1.12 ± 0.37 | 1.28 ± 0.2 | 1.1 ± 0.12 | 0.816 ± 0.17 | 1.05 ± 0.048 | 0.816 ± 0.077 |  |
| CN1CCN(c2c(F)cc3c(=O)c(C(=O)O)cn4c3c2SCC4)CC1 [Rufloxacin hydrochloride] | 1.13 ± 0.02 | 1.18 ± 0.11 | 1.28 ± 0.14 | 0.949 ± 0.062 | 1.28 ± 0.023 | 1 ± 0.4 | 1.14 ± 0.29 |  | 1.12 ± 0.27 | 0.806 ± 0.1 | 0.608 ± 0.11 | 1.62 ± 0.19 | 1.54 ± 0.24 | 0.848 ± 0.37 | 1.38 ± 0.33 | 0.908 ± 0.066 | 1.08 ± 0.4 | 0.78 ± 0.077 |
| Oc1ccc(/C=C/c2cc(O)cc(O)c2)cc1 [Resveratrol] | 1.3 ± 0.14 | 1.27 ± 0.11 | 1.26 ± 0.18 | 1.16 ± 0.095 | 1.21 ± 0.039 | 1.19 ± 0.14 | 4.25 ± 0.37 |  | 0.714 ± 0.3 | 1.38 ± 0.23 | 2.26 ± 0.5 | 1.04 ± 0.14 | 1.19 ± 0.22 | 1.26 ± 0.16 | 1.11 ± 0.084 | 1.32 ± 0.11 | 1.5 ± 0.45 | 0.759 ± 0.084 |

Look-ups from above:
For Hoechst total cell count ratio (hAMSC donor 2 [2]; [8]), CC(C)(C#N)c1cc(Cn2cncn2)cc(C(C)(C)C#N)c1 [Anastrozole] reads 1.51 ± 0.22
For transfection efficiency (hAMSC donor 1 [5]; [9]), O=C(c1ccc(OCCN2CCCCC2)cc1)c1c(-c2ccc(O)cc2)sc2cc(O)ccc12 [Raloxifene hydrochloride] reads 1.26 ± 0.26
